Earlier results in patent US20260207625A1, “New medical use of 3a-ethynyl-3ß hydroxyandrostan-17-one oxime” (priority 2022, published 2026).
At least one compound was matched to its structure with a doubt left.

Tested on: GABAA receptors
Details: Parkinson's disease model rats pre-treated with L-DOPA; Nishijima et al. 2020; cited from earlier work

CN1CCc2cc3c(cc2[C@H]1[C@@H]1OC(=O)c2c1ccc1c2OCO1)OCO3 [bicuculline]
Effect on LID: alleviated LID
